From the supplement of paper PMC10849652
This is one part of the list.

By UniProt entry, the sequences of proteins in these tests, tags left out. Where a name states a change or a piece, a line headed by the entry shows the natural chain unless it says otherwise.
UniProt Q9C0J8: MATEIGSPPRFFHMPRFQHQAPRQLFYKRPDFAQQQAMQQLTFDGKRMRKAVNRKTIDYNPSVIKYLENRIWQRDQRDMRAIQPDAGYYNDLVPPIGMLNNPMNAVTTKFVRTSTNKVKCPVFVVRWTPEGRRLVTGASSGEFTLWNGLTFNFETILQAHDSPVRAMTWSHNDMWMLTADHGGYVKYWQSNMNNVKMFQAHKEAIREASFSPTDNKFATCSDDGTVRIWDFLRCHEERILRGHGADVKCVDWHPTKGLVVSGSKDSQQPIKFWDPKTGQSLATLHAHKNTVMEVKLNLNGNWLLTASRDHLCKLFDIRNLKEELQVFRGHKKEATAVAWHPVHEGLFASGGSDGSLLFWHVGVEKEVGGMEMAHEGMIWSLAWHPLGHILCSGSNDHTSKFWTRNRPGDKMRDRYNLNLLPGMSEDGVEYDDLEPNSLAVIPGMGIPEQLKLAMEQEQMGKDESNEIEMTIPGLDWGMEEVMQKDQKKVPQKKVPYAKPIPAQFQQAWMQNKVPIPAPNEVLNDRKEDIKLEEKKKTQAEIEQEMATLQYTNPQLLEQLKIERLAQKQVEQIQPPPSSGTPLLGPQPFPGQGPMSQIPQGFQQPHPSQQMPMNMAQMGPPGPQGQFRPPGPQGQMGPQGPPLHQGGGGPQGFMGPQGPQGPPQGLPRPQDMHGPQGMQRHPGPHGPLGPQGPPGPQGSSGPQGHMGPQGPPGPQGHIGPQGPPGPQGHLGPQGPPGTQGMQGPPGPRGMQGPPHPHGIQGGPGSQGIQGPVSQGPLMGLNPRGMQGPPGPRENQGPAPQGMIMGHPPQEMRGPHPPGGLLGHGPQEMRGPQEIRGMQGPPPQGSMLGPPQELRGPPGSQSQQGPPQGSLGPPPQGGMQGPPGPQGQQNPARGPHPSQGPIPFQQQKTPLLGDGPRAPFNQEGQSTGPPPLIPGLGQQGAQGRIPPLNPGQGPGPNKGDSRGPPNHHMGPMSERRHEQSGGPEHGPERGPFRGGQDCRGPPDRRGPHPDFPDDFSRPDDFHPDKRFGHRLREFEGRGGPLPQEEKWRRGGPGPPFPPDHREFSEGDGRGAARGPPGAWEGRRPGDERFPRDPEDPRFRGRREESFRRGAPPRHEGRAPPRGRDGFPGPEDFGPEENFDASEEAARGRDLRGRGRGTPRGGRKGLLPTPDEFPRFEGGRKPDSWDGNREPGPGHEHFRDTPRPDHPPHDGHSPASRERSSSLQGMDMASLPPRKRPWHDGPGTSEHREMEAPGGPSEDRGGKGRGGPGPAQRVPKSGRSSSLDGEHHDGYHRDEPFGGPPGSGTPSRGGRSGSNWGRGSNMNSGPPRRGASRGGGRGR
UniProt O00401, whole entry, looked up: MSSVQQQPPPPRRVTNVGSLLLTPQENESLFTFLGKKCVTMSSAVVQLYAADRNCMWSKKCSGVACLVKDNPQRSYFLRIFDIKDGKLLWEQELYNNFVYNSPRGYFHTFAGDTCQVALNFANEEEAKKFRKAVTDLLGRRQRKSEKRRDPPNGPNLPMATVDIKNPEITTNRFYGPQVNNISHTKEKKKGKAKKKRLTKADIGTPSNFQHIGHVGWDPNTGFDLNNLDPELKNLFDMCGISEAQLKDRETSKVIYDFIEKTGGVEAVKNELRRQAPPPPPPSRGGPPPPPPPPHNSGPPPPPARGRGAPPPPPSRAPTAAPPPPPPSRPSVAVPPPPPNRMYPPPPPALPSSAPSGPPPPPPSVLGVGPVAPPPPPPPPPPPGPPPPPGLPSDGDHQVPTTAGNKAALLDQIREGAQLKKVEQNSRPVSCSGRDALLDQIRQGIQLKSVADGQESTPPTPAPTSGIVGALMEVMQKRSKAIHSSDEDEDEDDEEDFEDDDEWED
UniProt Q9HD64: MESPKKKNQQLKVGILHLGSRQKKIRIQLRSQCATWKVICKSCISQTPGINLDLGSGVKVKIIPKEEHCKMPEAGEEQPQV
UniProt Q9H967: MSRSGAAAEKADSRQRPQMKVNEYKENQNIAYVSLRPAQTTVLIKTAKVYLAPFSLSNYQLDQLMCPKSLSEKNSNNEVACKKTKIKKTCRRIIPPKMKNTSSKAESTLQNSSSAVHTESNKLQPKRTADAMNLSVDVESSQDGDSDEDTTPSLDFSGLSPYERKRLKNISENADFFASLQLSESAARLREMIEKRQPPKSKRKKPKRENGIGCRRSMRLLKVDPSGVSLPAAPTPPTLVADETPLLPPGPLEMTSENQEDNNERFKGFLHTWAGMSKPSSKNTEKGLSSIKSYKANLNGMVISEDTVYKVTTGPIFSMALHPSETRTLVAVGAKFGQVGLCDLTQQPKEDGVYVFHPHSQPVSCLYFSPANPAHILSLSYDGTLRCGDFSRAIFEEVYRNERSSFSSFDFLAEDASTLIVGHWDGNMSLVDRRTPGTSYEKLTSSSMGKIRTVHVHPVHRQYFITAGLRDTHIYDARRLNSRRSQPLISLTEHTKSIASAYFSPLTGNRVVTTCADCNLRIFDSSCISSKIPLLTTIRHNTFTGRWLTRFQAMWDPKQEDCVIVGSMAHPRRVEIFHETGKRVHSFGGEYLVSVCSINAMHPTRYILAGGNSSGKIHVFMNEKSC
UniProt Q9NQA3: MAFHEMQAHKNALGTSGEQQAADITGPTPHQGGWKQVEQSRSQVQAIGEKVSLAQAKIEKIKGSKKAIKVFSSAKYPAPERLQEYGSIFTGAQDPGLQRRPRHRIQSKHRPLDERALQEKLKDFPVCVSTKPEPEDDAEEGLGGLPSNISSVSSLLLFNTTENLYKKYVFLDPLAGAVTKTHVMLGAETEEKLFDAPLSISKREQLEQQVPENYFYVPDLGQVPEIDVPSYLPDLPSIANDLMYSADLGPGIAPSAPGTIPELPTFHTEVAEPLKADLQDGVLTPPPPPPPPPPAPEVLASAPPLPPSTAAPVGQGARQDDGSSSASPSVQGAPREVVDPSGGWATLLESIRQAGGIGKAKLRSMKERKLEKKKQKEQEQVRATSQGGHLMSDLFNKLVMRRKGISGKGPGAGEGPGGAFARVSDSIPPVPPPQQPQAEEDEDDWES
UniProt A4UGR9: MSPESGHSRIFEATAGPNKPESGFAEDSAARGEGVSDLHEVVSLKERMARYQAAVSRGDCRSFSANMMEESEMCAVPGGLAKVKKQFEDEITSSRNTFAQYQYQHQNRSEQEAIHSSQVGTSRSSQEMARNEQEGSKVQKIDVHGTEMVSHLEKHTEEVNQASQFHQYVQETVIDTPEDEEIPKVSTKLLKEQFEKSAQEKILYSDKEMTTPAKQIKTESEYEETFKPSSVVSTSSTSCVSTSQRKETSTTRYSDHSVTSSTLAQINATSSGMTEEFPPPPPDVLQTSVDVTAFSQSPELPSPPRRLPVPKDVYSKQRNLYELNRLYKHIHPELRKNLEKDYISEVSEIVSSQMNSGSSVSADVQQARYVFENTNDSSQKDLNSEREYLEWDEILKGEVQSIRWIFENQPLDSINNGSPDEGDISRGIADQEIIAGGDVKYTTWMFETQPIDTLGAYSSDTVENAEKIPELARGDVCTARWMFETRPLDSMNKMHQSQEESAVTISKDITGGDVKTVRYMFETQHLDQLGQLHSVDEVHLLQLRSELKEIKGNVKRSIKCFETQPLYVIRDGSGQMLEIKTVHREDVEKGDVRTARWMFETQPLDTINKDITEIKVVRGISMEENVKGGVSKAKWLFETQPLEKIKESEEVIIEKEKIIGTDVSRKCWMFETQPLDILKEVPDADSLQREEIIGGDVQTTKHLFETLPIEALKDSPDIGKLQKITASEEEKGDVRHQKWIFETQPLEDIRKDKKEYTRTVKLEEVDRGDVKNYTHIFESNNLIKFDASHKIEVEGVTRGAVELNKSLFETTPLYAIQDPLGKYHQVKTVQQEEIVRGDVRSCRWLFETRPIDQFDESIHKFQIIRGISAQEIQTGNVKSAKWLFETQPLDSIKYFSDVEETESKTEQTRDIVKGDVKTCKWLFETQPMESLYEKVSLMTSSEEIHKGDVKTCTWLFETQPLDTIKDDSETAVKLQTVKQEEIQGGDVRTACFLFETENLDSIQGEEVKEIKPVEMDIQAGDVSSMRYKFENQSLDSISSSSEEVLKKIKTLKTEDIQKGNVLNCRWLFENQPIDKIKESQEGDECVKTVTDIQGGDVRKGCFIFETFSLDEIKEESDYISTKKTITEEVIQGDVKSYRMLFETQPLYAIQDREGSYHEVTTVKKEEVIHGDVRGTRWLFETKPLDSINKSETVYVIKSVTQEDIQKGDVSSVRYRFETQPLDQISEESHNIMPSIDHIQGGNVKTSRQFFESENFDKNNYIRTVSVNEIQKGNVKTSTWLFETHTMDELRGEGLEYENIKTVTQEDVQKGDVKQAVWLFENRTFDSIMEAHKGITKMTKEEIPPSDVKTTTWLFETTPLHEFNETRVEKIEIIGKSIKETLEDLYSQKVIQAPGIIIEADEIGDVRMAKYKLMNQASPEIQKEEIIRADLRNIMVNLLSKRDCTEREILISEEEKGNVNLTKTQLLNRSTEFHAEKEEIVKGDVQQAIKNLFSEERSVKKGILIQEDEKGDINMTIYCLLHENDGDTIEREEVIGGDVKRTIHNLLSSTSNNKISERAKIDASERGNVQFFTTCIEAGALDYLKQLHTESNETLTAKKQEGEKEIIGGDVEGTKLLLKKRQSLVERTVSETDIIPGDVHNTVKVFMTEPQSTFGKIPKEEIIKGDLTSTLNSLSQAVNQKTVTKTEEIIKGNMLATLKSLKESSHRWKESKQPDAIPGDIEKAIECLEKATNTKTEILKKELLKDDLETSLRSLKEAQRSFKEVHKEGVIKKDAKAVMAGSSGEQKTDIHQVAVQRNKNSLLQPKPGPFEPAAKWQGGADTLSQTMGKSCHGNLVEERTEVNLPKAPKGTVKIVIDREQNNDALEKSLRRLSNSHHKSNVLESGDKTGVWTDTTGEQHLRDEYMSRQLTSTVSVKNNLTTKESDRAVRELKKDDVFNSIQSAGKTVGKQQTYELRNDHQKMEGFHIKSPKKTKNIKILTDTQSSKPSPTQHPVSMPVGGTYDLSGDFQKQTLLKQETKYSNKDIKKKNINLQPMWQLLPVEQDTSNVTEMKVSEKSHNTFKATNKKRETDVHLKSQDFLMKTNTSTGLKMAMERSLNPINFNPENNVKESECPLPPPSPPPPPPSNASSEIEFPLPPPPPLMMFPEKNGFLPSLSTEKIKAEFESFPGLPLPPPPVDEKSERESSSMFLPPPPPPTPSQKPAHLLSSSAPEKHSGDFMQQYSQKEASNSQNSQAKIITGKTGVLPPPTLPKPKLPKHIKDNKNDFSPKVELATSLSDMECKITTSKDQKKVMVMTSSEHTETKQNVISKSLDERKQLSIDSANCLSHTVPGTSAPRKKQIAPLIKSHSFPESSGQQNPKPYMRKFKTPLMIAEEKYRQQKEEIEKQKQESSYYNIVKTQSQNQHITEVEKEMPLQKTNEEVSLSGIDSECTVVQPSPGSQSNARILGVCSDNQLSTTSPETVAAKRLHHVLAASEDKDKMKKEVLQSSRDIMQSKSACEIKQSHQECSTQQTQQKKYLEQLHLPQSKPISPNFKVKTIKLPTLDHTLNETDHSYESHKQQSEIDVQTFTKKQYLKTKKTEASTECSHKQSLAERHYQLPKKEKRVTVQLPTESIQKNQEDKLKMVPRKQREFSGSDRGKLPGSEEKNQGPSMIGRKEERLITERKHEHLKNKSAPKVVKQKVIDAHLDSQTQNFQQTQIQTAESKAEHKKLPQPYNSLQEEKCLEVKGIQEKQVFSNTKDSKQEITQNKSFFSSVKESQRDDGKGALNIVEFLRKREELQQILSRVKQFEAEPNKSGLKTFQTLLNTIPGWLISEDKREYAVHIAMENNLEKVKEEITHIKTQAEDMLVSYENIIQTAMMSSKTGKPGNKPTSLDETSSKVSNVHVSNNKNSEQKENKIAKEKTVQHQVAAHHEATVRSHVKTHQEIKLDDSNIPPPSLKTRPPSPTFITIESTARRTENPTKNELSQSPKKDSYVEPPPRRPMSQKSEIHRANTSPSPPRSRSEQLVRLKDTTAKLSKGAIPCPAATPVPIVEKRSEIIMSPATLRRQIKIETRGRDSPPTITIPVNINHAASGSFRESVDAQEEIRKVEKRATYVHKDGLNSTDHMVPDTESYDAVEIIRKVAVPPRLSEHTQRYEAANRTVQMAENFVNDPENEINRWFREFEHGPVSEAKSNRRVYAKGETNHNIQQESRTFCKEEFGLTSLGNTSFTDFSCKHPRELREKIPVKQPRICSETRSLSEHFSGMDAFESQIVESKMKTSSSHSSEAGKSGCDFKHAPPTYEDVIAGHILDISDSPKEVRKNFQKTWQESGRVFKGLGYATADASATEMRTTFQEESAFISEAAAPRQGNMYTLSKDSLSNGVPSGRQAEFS

Experiments:
Assay in all cases: log2 fold change, soluble protein after heating vs DMSO (PISA); higher = thermal stabilisation; K562 lysate, 10 uM; active = over 0.2 and 3.5 SD of the protein, either way, in both replicates (recomputed)
lapatinib = compound: CS(=O)(=O)CCNCc1ccc(-c2ccc3ncnc(Nc4ccc(OCc5cccc(F)c5)c(Cl)c4)c3c2)o1 [lapatinib]
How it was run: (§1)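 Dounce homogenisation of K562 pellets in PBS pH 7.4 with 1 mM MgCl2 produced a crude extract, used at 1 mg/mL protein. Exposure to 10 μM compound lasted 30 min, and aliquots were then heated for 3 min across 48°C-58°C, pooled and brought to 0.5% NP-40 at 4°C. The supernatant after 21,000xg for 90 min was quantified by TMTpro 16plex LC-MS/MS with channel sums equalised. Duplicate values are given as log-two fold change in thermal stability relative to solvent controls.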

pictilisib = compound: CS(=O)(=O)N1CCN(Cc2cc3nc(-c4cccc5[nH]ncc45)nc(N4CCOCC4)c3s2)CC1 [pictilisib]
How it was run: as §1

crizotinib = compound: C[C@@H](Oc1cc(-c2cnn(C3CCNCC3)c2)cnc1N)c1c(Cl)ccc(F)c1Cl [crizotinib]
How it was run: as §1

[1] = compound: C[C@H](C1=CC=C(C=C1)C(=O)NC2=C3C=CNC3=NC=C2)N
How it was run: as §1

duvelisib = compound: C[C@H](Nc1ncnc2nc[nH]c12)c1cc2cccc(Cl)c2c(=O)n1-c1ccccc1 [duvelisib]
How it was run: as §1

gandotinib = compound: Cc1cc(Nc2cc(CN3CCOCC3)c3nc(C)c(Cc4ccc(Cl)cc4F)n3n2)n[nH]1 [gandotinib]
How it was run: as §1

tozasertib = compound: Cc1cc(Nc2cc(N3CCN(C)CC3)nc(Sc3ccc(NC(=O)C4CC4)cc3)n2)n[nH]1 [tozasertib]
How it was run: as §1

doramapimod = compound: Cc1ccc(-n2nc(C(C)(C)C)cc2NC(=O)Nc2ccc(OCCN3CCOCC3)c3ccccc23)cc1 [doramapimod]
How it was run: as §1

bafetinib = compound: Cc1ccc(NC(=O)c2ccc(CN3CC[C@H](N(C)C)C3)c(C(F)(F)F)c2)cc1Nc1nccc(-c2cncnc2)n1 [bafetinib]
How it was run: as §1

[2] = compound: Cc1cccc(CC(=O)N2CCc3c2ccc(-c2cn(C)c4ncnc(N)c24)c3F)n1
How it was run: as §1

Measured: log2 fold change

WDR5 (UniProt P61964)
inactive: lapatinib -0.027 | pictilisib 0.011 | crizotinib -0.04 | [1] -0.16 | duvelisib -0.018 | gandotinib 0.137 | tozasertib -0.041 | doramapimod -0.089 | bafetinib -0.043 | [2] 0.111

VWDE (UniProt Q8N2E2)
inactive: lapatinib -0.026 | pictilisib -0.032 | crizotinib -0.047 | [1] 0.007 | duvelisib 0.054 | gandotinib 0.005 | tozasertib -0.026 | doramapimod 0.016 | bafetinib 0.043 | [2] 0.029

WDR46, A0A0G2JJL1
inactive: lapatinib -0.136 | pictilisib -0.126 | [1] -0.133 | duvelisib -0.023 | gandotinib -0.08 | bafetinib 0.02 | [2] -0.121

WDR6 (UniProt Q9NNW5)
inactive: lapatinib -0.023 | pictilisib -0.03 | crizotinib -0.049 | [1] -0.05 | duvelisib -0.005 | gandotinib -0.007 | tozasertib -0.013 | doramapimod -0.007 | bafetinib -0.022 | [2] 0.024

VPS35, A0A1W2PP10
inactive: lapatinib 0.244 | pictilisib -0.118 | crizotinib -0.206 | [1] 0.07 | gandotinib 0.119 | doramapimod -0.089 | bafetinib 0.121 | [2] -0.03

WARS1 (UniProt G3V277)
inactive: pictilisib -0.098 | tozasertib 0.076 | bafetinib -0.127

WDR13, A0A087X091
inactive: [1] -0.01 | gandotinib 0.16 | [2] -0.072

WIPI2 isoform 6 (UniProt Q9Y4P8)
inactive: pictilisib -0.102 | [1] 0.025 | gandotinib 0.181 | bafetinib -0.013 | [2] -0.089

WAC isoform 5 (UniProt Q9BTA9)
inactive: duvelisib 0.226

VLDLR (UniProt P98155)
inactive: pictilisib 0.081 | crizotinib 0.176 | doramapimod -0.016 | bafetinib 0.001

XK (UniProt P51811)
inactive: lapatinib 0.008 | pictilisib -0.013 | [1] -0.019 | duvelisib 0.04 | gandotinib -0.007 | tozasertib -0.096 | bafetinib -0.042 | [2] 0.043

WAS (UniProt P42768)
inactive: pictilisib -0.027 | [1] -0.16 | duvelisib -0.194 | gandotinib -0.057 | tozasertib -0.127 | bafetinib -0.065 | [2] 0.103

WDR33 (UniProt Q9C0J8)
inactive: lapatinib -0.012 | pictilisib -0.033 | crizotinib -0.023 | [1] -0.037 | duvelisib 0.015 | gandotinib 0.043 | tozasertib 0.047 | doramapimod 0.013 | bafetinib 0.006 | [2] 0.032

WASL (UniProt O00401)
inactive: lapatinib -0.031 | pictilisib 0.021 | crizotinib -0.034 | [1] 0.093 | duvelisib 0.011 | gandotinib -0.04 | tozasertib 0.06 | doramapimod 0.051 | bafetinib 0.01 | [2] -0.08

WDR13 (UniProt Q9H1Z4)
inactive: lapatinib -0.016 | pictilisib -0.052 | crizotinib 0.035 | [1] -0.031 | duvelisib -0.023 | gandotinib -0.044 | tozasertib -0.005 | doramapimod -0.031 | bafetinib -0.015 | [2] 0.011

VPS35 (UniProt Q96QK1)
inactive: lapatinib -0.004 | pictilisib -0.017 | crizotinib -0.038 | [1] 0.018 | duvelisib -0.023 | gandotinib -0.03 | tozasertib -0.02 | doramapimod 0.027 | bafetinib 0.019 | [2] -0.006

XAGE1A (UniProt Q9HD64)
inactive: pictilisib -0.032 | tozasertib -0.094 | bafetinib 0.087

WDR19 (UniProt Q8NEZ3)
inactive: lapatinib -0.117 | pictilisib -0.152 | crizotinib -0.208 | [1] -0.131 | gandotinib 0.135 | doramapimod 0.015 | bafetinib -0.122 | [2] 0.213

WDR77 (UniProt Q9BQA1)
inactive: lapatinib 0.012 | pictilisib 0.016 | crizotinib -0.027 | [1] 0.014 | duvelisib 0.119 | gandotinib -0.037 | tozasertib -0.005 | doramapimod 0.008 | bafetinib -0.024 | [2] -0.047

WDR34 (UniProt Q96EX3)
inactive: pictilisib 0.09 | crizotinib 0.183 | [1] -0.042 | duvelisib 0.029 | gandotinib -0.046 | tozasertib 0.052 | doramapimod -0.205 | bafetinib -0.041 | [2] 0.017

WWOX (UniProt Q9NZC7)
inactive: crizotinib -0.057 | [1] 0.133 | duvelisib 0.016 | gandotinib -0.246 | doramapimod -0.233 | [2] -0.278

XAB2 (UniProt Q9HCS7)
inactive: lapatinib -0.02 | pictilisib -0.051 | crizotinib -0.096 | [1] 0.025 | duvelisib 0.038 | gandotinib -0.055 | tozasertib -0.073 | doramapimod 0.01 | bafetinib 0.065 | [2] 0.028

WDR76 (UniProt Q9H967)
inactive: crizotinib 0.027 | duvelisib 0.137 | tozasertib -0.19 | doramapimod -0.103

VPS72 (UniProt Q15906)
inactive: lapatinib 0.025 | crizotinib 0.005 | [1] -0.099 | duvelisib 0.001 | gandotinib 0.031 | tozasertib 0.059 | doramapimod -0.023 | [2] 0.136

WEE1 (UniProt P30291)
inactive: lapatinib -0.034 | pictilisib -0.047 | crizotinib -0.141 | duvelisib 0.033 | tozasertib 0.011 | doramapimod 0.183 | bafetinib 0.068

WARS1 (UniProt G3V5U1)
inactive: lapatinib -0.05 | pictilisib -0.015 | tozasertib 0.213 | bafetinib -0.028

VPS29 (UniProt Q9UBQ0)
inactive: lapatinib -0.04 | crizotinib -0.119 | duvelisib 0.057 | doramapimod -0.101

VPS53 isoform 4 (UniProt Q5VIR6)
inactive: lapatinib -0.015 | pictilisib -0.005 | crizotinib -0.057 | [1] -0.001 | duvelisib 0.018 | gandotinib -0.097 | tozasertib 0.001 | doramapimod 0.016 | bafetinib 0.003 | [2] 0.003

WASH6P (UniProt Q9NQA3)
inactive: pictilisib -0.195 | bafetinib -0.056

WDR92 (UniProt Q96MX6)
inactive: lapatinib 0.011 | pictilisib -0.01 | crizotinib 0 | [1] 0.046 | duvelisib 0.02 | gandotinib -0.019 | tozasertib -0.007 | doramapimod 0.011 | bafetinib -0.028 | [2] -0.012

2 entries drawn at random from the list so far:
XAB2 (UniProt Q9HCS7)
inactive: lapatinib -0.02 | pictilisib -0.051 | crizotinib -0.096 | [1] 0.025 | duvelisib 0.038 | gandotinib -0.055 | tozasertib -0.073 | doramapimod 0.01 | bafetinib 0.065 | [2] 0.028

WDR33 (UniProt Q9C0J8)
inactive: lapatinib -0.012 | pictilisib -0.033 | crizotinib -0.023 | [1] -0.037 | duvelisib 0.015 | gandotinib 0.043 | tozasertib 0.047 | doramapimod 0.013 | bafetinib 0.006 | [2] 0.032

Next part

WDFY2 (UniProt Q96P53)
inactive: duvelisib -0.032

WSB1 (UniProt Q9Y6I7)
active: gandotinib -1.11
inactive: [1] 0.12 | duvelisib -0.137 | [2] -0.674

WDR54 isoform 4 (UniProt Q9H977)
inactive: pictilisib -0.147 | crizotinib 0.04 | [1] 0.066 | duvelisib -0.022 | gandotinib -0.322 | tozasertib -0.187 | doramapimod -0.017 | bafetinib 0.069 | [2] 0.001

WDR83 (UniProt Q9BRX9)
inactive: lapatinib -0.151 | pictilisib -0.062 | duvelisib 0.045 | bafetinib -0.092

XIRP2 isoform 8 (UniProt A4UGR9)
inactive: lapatinib -0.005 | pictilisib -0.015 | bafetinib -0.153

XPNPEP1 isoform 3 (UniProt Q9NQW7)
inactive: lapatinib -0.017 | pictilisib -0.02 | crizotinib -0.008 | [1] 0.001 | duvelisib 0.049 | gandotinib 0.002 | tozasertib -0.024 | doramapimod -0.003 | bafetinib -0.021 | [2] 0.018
